# Library screen at single concentrations

Measurements from “University of Dundee, Small-Polar-MMV Screening Library” (2021), ChEMBL document CHEMBL3988442.

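Whole-parasite assay of Trypanosoma brucei over 72 hours; the read-out is not stated. Concentration: 30 µM. Direction is inferred from retests: higher values go with stronger inhibition. Values scatter widely below zero; nearly all retest evidence comes from the higher of the two concentrations used. About 64,000 compounds were tested under these conditions; 1.5% (about 940) showed 50% or more at least once.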

Each number is a percent effect as filed.
The record does not define 0% and 100%; most values in the screen are far below 50% and negative numbers occur (in some assays of this library far below -100).
The compounds are a random part of those screened.

Result for [H][C@]12CCC[C@@]1(COCC)CN(C(=O)COc1ccccc1OC)C2 was -54.4%. Result for COc1ccc(CCNC(=O)NC2CC(=O)N(c3ccccc3)C2)cc1 (stereo not drawn) was -11.13%. With COCCn1cnnc1C1CCCN(C(C)C)C1 (stereo not drawn) the screen gave -30.37%. For COCCO[C@H]1CCN(Cc2ccsc2)[C@H]1Cc1cccnc1.O=C(O)C(F)(F)F.O=C(O)C(F)(F)F the result was -71.62%. With CC(NC(=O)NC1CCN(Cc2ccncc2)CC1)c1cccc(F)c1 (stereo not drawn) the screen gave -8.943%.

Result for COc1ccc(C2C3=C(COC3=O)Nc3[nH]nc(C)c32)cc1OC (stereo not drawn) was 18.62%. O=C(CCC(F)(F)F)NCC1CCCS1 (stereo not drawn) gave -44.09%. For CSc1ccccc1C(=O)N(C)C1CCCN(CCc2ccccc2)C1 (stereo not drawn) the result was -10.6%. With CC(Nc1ccc(CCN2CCCCC2)cc1)C(=O)N(C)CCC#N (stereo not drawn) the screen gave 8.059%. CCCc1noc(CCC(=O)Nc2cc(C(F)(F)F)c[nH]c2=O)n1 read -4.321%.

Cc1nn(C)c(C)c1CNC(=O)c1cc(NC(=O)C2CC2)n(C)n1 read -6.158%. Result for O=C(O)C(F)(F)F.O=C(O)C(F)(F)F.[H][C@]12C[C@@H](CN3CCCC3)N(C)[C@@]1([H])CCN(C(=O)c1occc1C)C2 was -16.38%. [H][C@@]12CN(Cc3nccn3C)C(=O)N1CCN(S(=O)(=O)c1ccccc1)C2 gave 12.39%. Result for CCC(C)c1csc(NC(=O)c2sc(-c3nnc[nH]3)nc2C)n1 (stereo not drawn) was -65.22%. With OC1COCCN(Cc2cc(-c3ccccc3OC(F)(F)F)no2)C1 (stereo not drawn) the screen gave -31.26%.

Result for CS(=O)(=O)NCCNC(=O)c1cnc(-c2ccccc2)nc1 was 6.237%. For Cc1nn(C)c(C)c1C1COCCN1C(=O)CSC(C)(C)C (stereo not drawn) the result was -9.919%. Cn1ncc(CN2CCc3onc(-c4cccc(F)c4)c3C2)c1C1CC1 read 32.05%. COc1ccc(COCC(O)CN(C)c2ccc(C)cc2C)cc1 (stereo not drawn) read -51.85%. Result for O=C(O)C(F)(F)F.[H][C@@]12CCCO[C@]1([H])[C@@H](NC(=O)N(C)C)CN2C1CCOCC1 was -76.6%.

For CN(C)CCN(C)C1CCCN(C(=O)c2ccc(Cn3ccnc3)o2)C1 (stereo not drawn) the result was -19.9%. CC(=O)N[C@@H]1CN(Cc2nccn2C)C[C@H]1c1ccc(C)cc1 read -22.27%. For CCC(C)NC(=O)Cc1c(C)nc2c(c1C)c(=O)[nH]n2C (stereo not drawn) the result was -49.7%. Result for O=C(NCCn1nc2ccccn2c1=O)c1cc(-c2ccccc2)[nH]n1 was 34.39%. With CC(C)(C)CCN1CCN(Cn2nccc2-c2cccnc2)CC1 the screen gave -31.89%.

Result for COc1ccc(CN2CCC3(CCCNC3)C2)cc1Cn1cccn1 (stereo not drawn) was -14.04%. With CCC(CC)C(O)CNC(=O)Nc1cc(C)nn1C (stereo not drawn) the screen gave 7.796%. Result for CC(C)OCc1ncn2c1CN(CCO)CCC2.O=C(O)C(F)(F)F was -30.04%. Result for [H][C@]12CCN(C(=O)Nc3ccccc3C)CC[C@@]1([H])S(=O)(=O)N(C)C2 was -9.666%. With COc1ccc2c(c1)CCCC2CC(=O)NCC(=O)O (stereo not drawn) the screen gave -39.47%.

With O=C(c1ccncc1F)N1CCCC(c2nccn2CC2CCC2)C1 (stereo not drawn) the screen gave -10.78%. C[C@@H]1CN(c2nc(N)nc3c2CCC3)C[C@]1(C)O read 21.48%. For O=C(CCc1cscn1)NS(=O)(=O)c1ccc2ccccc2c1 the result was 11.33%. With COCCN1CCN(CCS(=O)(=O)C(F)(F)F)CC1C (stereo not drawn) the screen gave 3.136%. For O=C(c1ccccc1OCC1CC1)N1CCCC(n2ccnc2)C1 (stereo not drawn) the result was 1.958%.

For reference, 4 entries once more:

Compound	effect
[H][C@]12CCC[C@@]1(COCC)CN(C(=O)COc1ccccc1OC)C2	-54.4%
O=C(O)C(F)(F)F.O=C(O)C(F)(F)F.[H][C@]12C[C@@H](CN3CCCC3)N(C)[C@@]1([H])CCN(C(=O)c1occc1C)C2	-16.38%
CCCc1noc(CCC(=O)Nc2cc(C(F)(F)F)c[nH]c2=O)n1	-4.321%
CS(=O)(=O)NCCNC(=O)c1cnc(-c2ccccc2)nc1	6.237%